# Experimental data as given in patent US6245742A, “Peptide antagonists of cellular mitogenesis and motogenesis and their therapeutic use” (Pharmacia & Upjohn S.p.A., priority 1996, dated 2001).
# Not every detail of the peptide structures is certain; ends, links or a residue may be inferred. Where a SMILES comes first, the peptide text is derived from it.
# Experiments:
# [1] = test system: MDCK cells; assay: HGF mediated cell motility (scatter assay / Transwell migration) after cell zapping; format: cell-based; conditions: peptide electroporated (1 mM solution), HGF stimulation, FIG. 1A, FIG. 2
# [2] = test system: MDCK cells; assay: Tubulogenesis assay induced by HGF after cell zapping; format: cell-based; conditions: two-days culture of electroporated MDCK in collagen matrix; FIG. 3
smiles,measurement,setting,value
"CC(=O)N[C@@H](Cc1ccccc1)C(=O)N[C@H](C(=O)N[C@@H](CC(N)=O)C(=O)N[C@H](C(=O)O)C(C)C)C(C)C [FCE 29606, Ac--Phe--Val--Asn--Val--OH, reference compound] (Ac-FVNV-OH)",effect on HGF mediated cell motility,[1],doesn't
same,effect on tubulogenesis induced by HGF,[2],allows cells to organize in normal tubular structures
